In assay [1] the target is FGF21R (FGFR1c and β-Klotho) on transfected AM1 CHO or 293T cells (human) (UniProt P11362). The assay is described as follows: flow cytometry on cells used as immunogen (FIG. 3). A general note: A flow cytometer gives signals particle by particle.
The target is the same in assay [2]. As to the kind of experiment: flow cytometry on FGFR1c/β-Klotho transfected AM1 CHO or 293T cells.

Amino acid sequences for entries named in this document (tags omitted). A change or cut given only in a name is not applied to a line headed by its entry.
UniProt P11362: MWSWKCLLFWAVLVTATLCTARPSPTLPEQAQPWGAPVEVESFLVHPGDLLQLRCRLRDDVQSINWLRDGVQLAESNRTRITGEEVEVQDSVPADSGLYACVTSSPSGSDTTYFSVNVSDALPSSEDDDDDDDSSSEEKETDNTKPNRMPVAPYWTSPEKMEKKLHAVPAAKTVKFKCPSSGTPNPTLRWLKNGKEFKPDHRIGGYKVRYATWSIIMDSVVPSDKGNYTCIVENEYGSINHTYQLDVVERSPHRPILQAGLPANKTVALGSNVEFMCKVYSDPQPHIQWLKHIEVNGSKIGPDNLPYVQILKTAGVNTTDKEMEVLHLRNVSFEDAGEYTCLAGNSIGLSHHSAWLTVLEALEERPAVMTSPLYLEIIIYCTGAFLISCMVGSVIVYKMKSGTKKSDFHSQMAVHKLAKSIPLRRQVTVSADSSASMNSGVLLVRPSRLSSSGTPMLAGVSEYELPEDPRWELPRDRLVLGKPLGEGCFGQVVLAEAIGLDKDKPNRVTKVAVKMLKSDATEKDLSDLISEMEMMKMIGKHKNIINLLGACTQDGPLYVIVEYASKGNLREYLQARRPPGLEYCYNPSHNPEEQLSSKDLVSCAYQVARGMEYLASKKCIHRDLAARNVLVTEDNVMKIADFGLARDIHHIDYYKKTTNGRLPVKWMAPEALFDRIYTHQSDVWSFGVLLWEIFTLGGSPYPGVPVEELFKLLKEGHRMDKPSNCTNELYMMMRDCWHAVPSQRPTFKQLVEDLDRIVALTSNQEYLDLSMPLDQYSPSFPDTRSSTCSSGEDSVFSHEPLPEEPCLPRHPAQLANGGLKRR
UniProt Q9NSA1: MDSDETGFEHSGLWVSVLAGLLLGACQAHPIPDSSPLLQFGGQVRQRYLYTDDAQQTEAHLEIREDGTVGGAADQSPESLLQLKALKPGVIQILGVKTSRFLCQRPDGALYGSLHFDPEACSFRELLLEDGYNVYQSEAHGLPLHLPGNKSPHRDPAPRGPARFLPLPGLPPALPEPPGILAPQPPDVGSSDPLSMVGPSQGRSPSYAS

Results are given in words; binding and its absence hold for the method and conditions named. Some binding calls cover weakened binding; strength is not graded here.

Take “Alexa 647-labeled FGF21 (from UniProt Q9NSA1 29-209) (ligand)”: the binding entry in assay [1] and in assay [2] was “binds” in each case.

Values taken from patent US20130129725A1.
